The campaign covered roughly 580,000 compounds. About 6,100 (1.1%) were called active. Inconclusive results, whose numbers are uncertain, are shown with a selection of clear calls. Calls come from the whole dose curve; as a rule, active = well fitted inhibition curve with a large enough effect; inconclusive = small, poorly fitted or top-dose-only effect, or another doubt; inactive = no such curve, though single readings can be large or run the other way. Potencies of inconclusive entries are doubtful fits and often do not repeat.
Molecular target: Polyunsaturated fatty acid lipoxygenase ALOX12 (Homo sapiens) (UniProt P18054)
Test: Primary qHTS assay for inhibitors of human arachidonate 12S-lipoxygenase (ALOX12): Round 2
Conditions: purified 12hLO, xylenol orange hydroperoxide absorbance; activity change, negative = inhibition: at 108 µM (top of the series) unless noted
Outline: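 Hydroperoxide product was detected by ferrous iron/xylenol orange as the 573 to 405 nm absorbance ratio. Arachidonic acid at 40 uM (final) was turned over for 30 min at room temperature by 150 nM human 12hLO, pH 7.0 Hepes buffer, after 15 min compound preincubation.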
% is set by controls: 0 for no effect and ±100 for the full control effect; potency is the fitted concentration of half-maximal effect.

The chains behind the UniProt entries cited, without tags or fusion partners. Where a name states a change or a piece, a line headed by the entry shows the natural chain unless it says otherwise.
UniProt P18054: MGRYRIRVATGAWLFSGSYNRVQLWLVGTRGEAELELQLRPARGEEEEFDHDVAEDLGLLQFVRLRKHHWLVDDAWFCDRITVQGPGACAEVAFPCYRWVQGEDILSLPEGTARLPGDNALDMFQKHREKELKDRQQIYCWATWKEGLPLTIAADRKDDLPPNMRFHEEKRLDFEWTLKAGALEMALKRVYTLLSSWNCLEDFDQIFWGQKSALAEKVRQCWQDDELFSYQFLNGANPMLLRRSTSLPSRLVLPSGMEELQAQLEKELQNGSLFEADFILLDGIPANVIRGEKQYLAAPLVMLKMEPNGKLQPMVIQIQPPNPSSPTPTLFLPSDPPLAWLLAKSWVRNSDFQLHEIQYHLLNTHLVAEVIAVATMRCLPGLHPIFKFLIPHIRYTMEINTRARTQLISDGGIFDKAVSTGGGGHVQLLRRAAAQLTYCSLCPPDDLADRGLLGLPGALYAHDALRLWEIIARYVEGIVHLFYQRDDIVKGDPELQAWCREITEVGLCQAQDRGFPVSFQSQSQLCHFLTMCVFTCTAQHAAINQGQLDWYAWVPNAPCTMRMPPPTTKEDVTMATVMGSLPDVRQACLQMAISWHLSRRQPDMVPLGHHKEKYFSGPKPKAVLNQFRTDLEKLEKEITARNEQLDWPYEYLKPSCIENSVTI

SMILES	Potency	activity change, negative = inhibition
CCCCNC(=O)Cc1n[nH]c(=O)c2ccccc12	inconclusive: 39.8 µM [inhibitor, single point]	–
Cc1c(C(=O)Nc2ccc(C(=O)O)cc2)nnn1-c1ccccc1	inactive	–
COc1cc(OC)cc(C(=O)NNC(=O)Cc2cccs2)c1	inconclusive: 112 µM [inhibitor, single point]	–
Cc1cccc(C(=O)Nc2cccc3cccnc23)c1C	inactive	–
COC(=O)c1cc(N2CCOCC2)ccc1NC(=O)c1cccc(C#N)c1	inconclusive: 44.7 µM [inhibitor, partial curve, poor fit]	–
O=C(COc1c(Br)cc(Br)c2cccnc12)Nc1ccccc1F	inconclusive: 39.8 µM [inhibitor, partial curve, poor fit]	–
CCn1nc(C(=O)Nc2ccc(C)c(S(=O)(=O)N(C)C)c2)c2ccccc2c1=O	inconclusive: 100 µM [inhibitor, partial curve, poor fit]	–
CC1CCCC(C)N1C(=O)CSc1nnc(-c2c[nH]c3ccccc23)o1 (centres undefined)	inconclusive: 5.62 µM [inhibitor, single point]	–
O=C1NC[C@H](Cc2ccccc2)N(C[C@@H]2CCCN2C[C@H](Cc2ccc(O)cc2)N2C[C@H](Cc3ccccc3)N(CCc3ccccc3)C(=O)C2=O)C1=O	inconclusive: 56.2 µM [inhibitor, partial curve, poor fit]	–
Cc1ccccc1Nc1c(-c2cccc(O)c2)nc2cnccn12	inactive	–
O=C(Cc1cccc(Cl)c1)N1CCC(c2nn(-c3ccc(Cl)cc3)c(=O)[nH]2)CC1	active: 20 µM	–
Cc1cccc(NS(=O)(=O)c2ccc(NC(=O)N3CCCCC3)cc2)c1	inactive	–
O=C(OC1CCCCC1=O)c1ncc(Cl)c(Cl)c1Cl (centres undefined)	inconclusive: 44.7 µM [inhibitor, partial curve, poor fit]	–
O=C(Nc1c(N2CCCC2)c2ccccc2oc1=O)C1CC(=O)N(c2ccccc2)C1 (centres undefined)	inconclusive: 112 µM [inhibitor, single point]	–
COc1ccc(OC)c(Nc2nc(-c3cccs3)cs2)c1	inactive	–
CSCCC(=O)NCCc1ccsc1	inactive	–
O=c1[nH]c(=O)n(-c2ccc(F)cc2)c2c1C(C(F)(F)F)(C(F)(F)F)N=C(c1ccc(F)cc1)N2	inactive	–
Cc1ccc(NS(=O)(=O)c2ccc(NC(=O)c3ccccc3C(=O)O)cc2)c(C)c1	inactive	–
Cc1ccc(-c2csc3ncnc(N4CCN(C(=O)c5ccco5)CC4)c23)cc1	inconclusive: 56.2 µM [inhibitor, partial curve, poor fit]	–
O=C(CN1CCN(c2nccs2)CC1)NCc1cccc(Cl)c1	inconclusive: 44.7 µM [inhibitor, partial curve, poor fit]	–
CC(C)OC(=O)N(C)C[C@@H]1OCc2cn(nn2)CCCC(=O)N([C@@H](C)CO)C[C@H]1C	inconclusive: 31.6 µM [inhibitor, single point]	–
CCOc1ccc(/C(O)=C2/C(=O)C(=O)N(CCOCCO)C2c2cccnc2)cc1 (centres undefined)	inconclusive: 100 µM [inhibitor, single point]	–
Cc1ccc(-c2nc(CSCC(=O)NCc3cccs3)c(C)o2)cc1	inconclusive: 1.58 µM [inhibitor, full curve, poor fit]	–

SMILES	Potency	activity change, negative = inhibition
COc1ccccc1/C=N/NC(=O)c1ccc(Br)cc1	inactive	–
O=C(Nc1ccc(S(=O)(=O)N2CCOCC2)cc1)C1COc2ccccc2O1 (centres undefined)	inconclusive: 100 µM [inhibitor, partial curve, poor fit]	–
COc1cccc(CN(C(=O)CN2C(=O)c3ccccc3S2(=O)=O)C(C(=O)NCC2CCCO2)c2ccco2)c1 (centres undefined)	inconclusive: 44.7 µM [inhibitor, partial curve, poor fit]	–
Cc1ccc(/C=C/C(=O)OC(C)C(=O)NC2CCCCC2C)o1 (centres undefined)	inconclusive: 50.1 µM [inhibitor, partial curve, poor fit]	–
CN(Cc1cccnc1)c1nc2c(c(=O)[nH]1)CCN(CC1CCCCC1)CC2	inactive	–
NCCO/C=C/[C@H](N)C(=O)O	inconclusive: 22.4 µM [inhibitor, partial curve, poor fit]	–
c1ccc(CCn2nnnc2CN2CCN(C3CCCC3)CC2)cc1	inconclusive: 31.6 µM [inhibitor, partial curve, poor fit]	–
Cc1ccc(NC(=O)CN2CCN(C)CC2)cc1Br	inconclusive: 0.398 µM [inhibitor, full curve, poor fit]	–
Cc1nn(CN2CCN(S(=O)(=O)c3ccc(Cl)cc3)CC2)c(=O)c2ccccc12	inconclusive: 50.1 µM [inhibitor, full curve, poor fit]	–
CCOc1ccccc1C=NN1CCCCCC1	inconclusive: 79.4 µM [inhibitor, single point]	–
CCOC(=O)c1ccc(NC(=O)CSc2nnc(CNC(=O)c3ccccc3F)o2)cc1	inconclusive: 0.251 µM [inhibitor, full curve, poor fit]	–
O=C(Nc1ccc(OC(=O)c2ccco2)cc1)c1ccco1	inconclusive: 56.2 µM [inhibitor, partial curve, poor fit]	–
Cc1cc(C2=NNC(=NC3CC3)SC2)c(C)n1C1CC1	inconclusive: 44.7 µM [inhibitor, partial curve, poor fit]	–
COc1ccc(-c2c(C(=O)O)nc3ccccc3c2C(=O)O)cc1	inconclusive: 14.1 µM [inhibitor, full curve]	–
CCc1ccc(-c2cn3c(n2)sc2cc(C(=O)NC4CCCCC4)ccc23)cc1	inactive	–
c1ccc2sc(C3CCN(Cc4nnnn4Cc4ccc5c(c4)OCO5)CC3)nc2c1	inactive	–
Cn1nc(C(F)(F)F)c(/C=N/OC(=O)c2ccccc2)c1Cl	inactive	–
COCCNc1oc(-c2ccccc2)nc1S(=O)(=O)c1ccc(Br)cc1	inconclusive: 50.1 µM [inhibitor, partial curve, poor fit]	–
COc1ccccc1/C=C/C=N/NC(=O)c1cccs1	inactive	–
Nc1ncnc2c1ccn2[C@H]1CN(Cc2ccc3c(c2)OCO3)C[C@@H](COC(=O)c2ccccc2)O1	inconclusive: 5.01 µM [inhibitor, full curve, poor fit]	–
O=C1c2sc3nc4ccccc4n3c2C(=O)N1c1ccccc1Cl	inconclusive: 50.1 µM [inhibitor, single point]	–
COc1ccc(-c2cc3c(=O)n(CCNC(=O)c4cc(F)cc(F)c4)ccn3n2)cc1	inactive	–
N#Cc1cccc(COC(=O)c2c[nH]c3ccccc23)c1	inconclusive: 126 µM [inhibitor, single point]	–

SMILES	Potency	activity change, negative = inhibition
O=C(Nc1cccc(OC(F)(F)F)c1)C1Cc2c(-c3ccco3)ccnc2O1 (centres undefined)	inactive	–
COc1ccc(O)c(/C=c2/sc3nc4cc(C)c(C)cc4n3c2=O)c1	inconclusive: 28.2 µM [inhibitor, partial curve, poor fit]	–
Cc1cccc(NC(NC(=O)C(C)C)(C(F)(F)F)C(F)(F)F)c1	inactive	–
CCN(CC)S(=O)(=O)c1ccc(N2CCCC2)c(NC(=O)c2ccc(OC)cc2OC)c1	inactive	–
N#Cc1nc(-c2ccco2)oc1NCc1ccc(Cl)cc1	inconclusive: 0.355 µM [inhibitor, full curve, poor fit]	–
CCOc1cc(/C=C(\CC(=O)O)c2nc3ccccc3s2)ccc1OC	inactive	–
O=C(NCc1cc(F)cc(F)c1)C1(c2ccc(Cl)cc2)CCOCC1	–	inactive: 1.19% [at 6.33 µM]
CC(C)c1nc2oc3c(NCCN(C)C)ncnc3c2c2c1COC(C)(C)C2	inactive	–
CCOCC1(C)COc2ccc(C(=O)Nc3ccc(F)c(Cl)c3)cc2N1 (centres undefined)	inconclusive: 126 µM [inhibitor, partial curve, poor fit]	–
CCS(=O)(=O)Nc1ccc(C2(C(=O)NC(C)c3ccccc3)CCCCC2)cc1 (centres undefined)	inactive	–
Cc1cc(N2CCCN(C)CC2)nc2cc(Cl)ccc12	inconclusive: 79.4 µM [inhibitor, partial curve, poor fit]	–
COCC(=O)NC1CCC12CCN(C(=O)c1ccc(OC)cc1)CC2 (centres undefined)	inactive	–
O=C(Nc1nc(=O)c2ccccc2s1)c1ccc(F)cc1	inconclusive: 2.24 µM [inhibitor, full curve]	–
Cc1cc(C)cc(COC(=O)c2cnc(C)cn2)c1	inactive	–
COc1cccc(NC(=O)C2(C)CCN2Cc2ccc(OC(C)C)cc2)c1 (centres undefined)	inactive	–
NC(=S)Nc1cccc(O)c1	inconclusive: 15.8 µM [inhibitor, partial curve, poor fit]	–
O=C(CSc1ccc(-c2ccco2)nn1)c1ccccc1	inactive	–
Oc1cccc(/C=N/Nc2ccc(Cl)nn2)c1O	inconclusive: 6.31 µM [inhibitor, full curve]	–
O=C(N/N=C/c1c(Cl)cccc1Cl)c1ccccc1F	inactive	–
CCOC(=O)c1ccc(N2C(=O)c3n[nH]c(-c4ccco4)c3C2c2ccc(C)cc2)cc1 (centres undefined)	inconclusive: 35.5 µM [inhibitor, partial curve]	–
CCc1cccc(CC)c1N1C(=O)CC(Sc2ccccc2N)C1=O (centres undefined)	inconclusive: 56.2 µM [inhibitor, partial curve, poor fit]	–
CN(C(=O)COC(=O)/C=C/c1ccc(Cl)c(Cl)c1)c1c(N)n(Cc2ccccc2)c(=O)[nH]c1=O	inconclusive: 44.7 µM [inhibitor, partial curve, poor fit]	–
COc1ccc(-c2nc(C3CC3)nc3c2CN(C(=O)c2ccccc2OC)CC3)cc1	inconclusive: 70.8 µM [inhibitor, partial curve, poor fit]	–

A different layout for some results above.
COc1ccccc1/C=C/C=N/NC(=O)c1cccs1
  Potency: inactive
Nc1ncnc2c1ccn2[C@H]1CN(Cc2ccc3c(c2)OCO3)C[C@@H](COC(=O)c2ccccc2)O1
  Potency: inconclusive: 5.01 µM [inhibitor, full curve, poor fit]
O=C1c2sc3nc4ccccc4n3c2C(=O)N1c1ccccc1Cl
  Potency: inconclusive: 50.1 µM [inhibitor, single point]
COc1ccc(-c2cc3c(=O)n(CCNC(=O)c4cc(F)cc(F)c4)ccn3n2)cc1
  Potency: inactive

Single entries from above.
Under Potency, `CCOCC1(C)COc2ccc(C(=O)Nc3ccc(F)c(Cl)c3)cc2N1` (centres undefined) shows inconclusive: 126 µM [inhibitor, partial curve, poor fit]
Under Potency, `NC(=S)Nc1cccc(O)c1` shows inconclusive: 15.8 µM [inhibitor, partial curve, poor fit]
